According to PubChem BioAssay AID1259354 (Paczesny and Yang Labs, IUPUI and University of Michigan, 2018):
Hit rate of the full screen: of about 78,000 compounds, about 1,800 (2.3%) were called active. Inconclusive results, whose numbers are uncertain, are shown with a selection of clear calls. Rule as the data show it: active = inhibition above about 30%; inconclusive = mostly about 10% to 28%; inactive = weaker than that.

Sequences of proteins named here, by UniProt entry; tags and fusion partners are left off. A change or cut given only in a name is not applied to a line headed by its entry.
UniProt Q01638: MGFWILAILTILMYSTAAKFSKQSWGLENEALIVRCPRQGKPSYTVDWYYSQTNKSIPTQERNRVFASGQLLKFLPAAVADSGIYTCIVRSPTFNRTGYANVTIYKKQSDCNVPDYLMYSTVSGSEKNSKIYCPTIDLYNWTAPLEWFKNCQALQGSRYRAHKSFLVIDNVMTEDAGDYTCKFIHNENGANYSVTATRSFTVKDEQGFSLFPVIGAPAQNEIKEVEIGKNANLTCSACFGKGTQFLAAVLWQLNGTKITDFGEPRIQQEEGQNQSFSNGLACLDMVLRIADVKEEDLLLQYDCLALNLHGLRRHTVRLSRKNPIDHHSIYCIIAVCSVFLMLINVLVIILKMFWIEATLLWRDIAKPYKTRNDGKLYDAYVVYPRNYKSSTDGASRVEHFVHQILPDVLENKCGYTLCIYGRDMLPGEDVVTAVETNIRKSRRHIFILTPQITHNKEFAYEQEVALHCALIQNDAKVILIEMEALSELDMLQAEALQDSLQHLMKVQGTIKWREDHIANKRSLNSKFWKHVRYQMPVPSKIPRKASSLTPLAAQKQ

target: Interleukin-1 receptor-like 1 (Homo sapiens) (UniProt Q01638); experiment: blocks human ST2 binding to IL-33, primary screen, biochemical, AlphaLISA (AID 1259354); conditions: AlphaLISA ST2-Fc/biotin-IL-33 interaction, 1 h; at 17 µM, hits give high values

| SMILES | inhibition |
| --- | --- |
| CCOc1ccc(-c2nc3s/c(=C\c4cc(OC)c(OC)c(OC)c4)c(=O)n3n2)cc1 | inconclusive: 12% |
| Cc1cccc(N(C)S(=O)(=O)c2ccc3c(c2)c(=O)n(C)c(=O)n3C)c1 | inactive |
| COc1ccc(NC(=O)CCC2CCCN(C3CCOCC3)C2)cc1Cl (centres undefined) | inactive |
| COC(=O)c1ccc(-n2c(/C=C\c3ccc(F)c(F)c3)nc3ccccc3c2=O)cc1 | inconclusive: 10% |
| O=C(CCN1C(=O)c2cccc([N+](=O)[O-])c2C1=O)Nc1cccc(C(F)(F)F)c1 | inconclusive: 15% |
| CCc1nc(CNC(=O)CCn2c(C)cc3ccccc32)cs1 | inconclusive: 13% |
| O=C(Nc1ccc2c(c1)CN(C(=O)/C=C/c1cccs1)CC2)c1ccccn1 | inactive |
| CCN(CC)S(=O)(=O)c1ccc(Cl)c(C(=O)Nc2cccnc2)c1 | inconclusive: 13% |
| COc1ccccc1N1CCN(C(=O)c2ccc(Cl)cc2Cl)CC1 | inconclusive: 12% |
| O=c1[nH]c2ccc(S(=O)(=O)Nc3ccc(Br)cc3F)cc2[nH]c1=O | inconclusive: 22% |
| Clc1ccc(-c2csc3ncnc(NCCCN4CCOCC4)c23)cc1 | inactive |
| COc1cc(OC)cc(C(=O)NCCc2nc3ccccc3[nH]2)c1 | inactive |
| CCN(CC)/C(=C\C(=O)c1ccc([N+](=O)[O-])cc1)c1ccccc1 | active: 31% |
| CN(C)c1ccccc1-c1cc(C(=O)O)cc(S(=O)(=O)NC2CC2)c1 | inconclusive: 14% |
| CN1CCN(c2ncnc3c2cnn3Cc2ccc(Cl)cc2Cl)CC1 | inactive |
| Cc1ccc(-c2cc(O)c3c(c2)CN(C(=O)C(C)n2cccn2)CCO3)s1 (centres undefined) | inconclusive: 10% |
| CCC(C)n1c(=N)c(C(N)=O)cc2c(=O)n3ccccc3nc21 (centres undefined) | inconclusive: 10% |
| O=C(NC[C@H]1O[C@@H](CO)[C@@H](O)[C@H]1N1CCN(c2ccc(F)cc2)CC1)Nc1ccccc1 | inconclusive: 16% |
| CC(O)C(O)[C@H]1CNc2nc(N)[nH]c(=O)c2N1 (some centres undefined) | inactive |
| COc1ccc(NC(=O)NC(C)c2ccccc2)cc1 (centres undefined) | inconclusive: 17% |

2 entries from above, as labelled records.
Cc1cccc(N(C)S(=O)(=O)c2ccc3c(c2)c(=O)n(C)c(=O)n3C)c1
  inhibition: inactive
COc1ccc(NC(=O)CCC2CCCN(C3CCOCC3)C2)cc1Cl (centres undefined)
  inhibition: inactive

Not a retest: entries from further up.

| SMILES | inhibition |
| --- | --- |
| O=c1[nH]c2ccc(S(=O)(=O)Nc3ccc(Br)cc3F)cc2[nH]c1=O | inconclusive: 22% |
| Clc1ccc(-c2csc3ncnc(NCCCN4CCOCC4)c23)cc1 | inactive |

Remaining list, next part

| SMILES | inhibition |
| --- | --- |
| Cc1nn(C)c(Cl)c1CN1CCc2c([nH]c3ccccc23)C1c1nc2ccccc2n1C (centres undefined) | inconclusive: 19% |
| CC(C)c1cc(C(=O)N(Cc2nccn2C)C2CC2)nc(N)n1 | inactive |
| CCCCN(C)C(=O)c1cn(CC)c2ccc(S(=O)(=O)N3CCCCC3)cc2c1=O | inactive |
| Cc1cccc(CSc2nc3c(c(=O)n2-c2ccc(F)cc2)SCC3)c1 | inconclusive: 18% |
| CCCN(CCC)S(=O)(=O)c1ccc2c(c1)NC(=O)CC(=O)N2 | inactive |
| O=C(c1ccc(-c2ccn[nH]2)cc1)N1CC[C@H](CO)[C@H](O)C1 | inconclusive: 14% |
| O=C1C=C(c2ccccc2)C[C@H](c2cccs2)[C@H]1n1nnc([N+](=O)[O-])n1 | active: 33% |
| Cc1nccnc1N1CCC(n2cc(C(=O)NCC(C)C)nn2)CC1 | inactive |
| Cc1cc(CNC(=O)C2CCCN2S(C)(=O)=O)c2[nH]c(C)c(C)c2c1 (centres undefined) | inconclusive: 15% |
| CCn1c(C)ccc(C(=O)N2CCCC(N3CCc4ccccc4C3)C2)c1=O (centres undefined) | inconclusive: 12% |
| CN(Cc1ccc(Sc2nncn2C)o1)C1CCCN(Cc2ccccc2F)C1 (centres undefined) | inactive |
| Cc1ccccc1CN1C2=NC(=O)CN2c2ccccc21 | inactive |
| CC1CCC2(C(=O)OC3OC(CO)C(O)C(O)C3O)CCC3(C(=O)O)C(=CCC4C5(C)CCC(OC6OC(C)C(O)C(O)C6O)C(C)(C)C5CCC43C)C2C1C (centres undefined) | inconclusive: 15% |
| CC(C)(C)CN1CCCC2(CCN(C(=O)c3ccc(Cn4cnnn4)cc3)C2)C1 (centres undefined) | inactive |
| O=c1/c(=C/c2ccco2)sc2nnc(-c3ccccc3Cl)n12 | inconclusive: 16% |
| O=C(CN1C(=O)/C(=C/c2ccccc2F)Sc2ccccc21)N1CCCC1 | active: 33% |
| Nc1nc(-c2cc3cc(Br)cc(Br)c3oc2=O)cs1 | inconclusive: 18% |
| O=C(c1cc(-c2ccc(Br)cc2)on1)N1CCN(c2ccc(F)cc2)CC1 | inactive |
| COCCCNC(=O)CN1C(=O)/C(=C\c2cccc(Cl)c2)Sc2ccccc21 | inconclusive: 29% |
| CC(C)c1cc(-c2nc(C3(c4ccc(F)cc4)CCOC3)no2)nc(N)n1 (centres undefined) | inactive |

| SMILES | inhibition |
| --- | --- |
| Cc1ccc(NC(=O)CC(=O)N2CCCCCCCC2)c(C)c1 | inconclusive: 16% |
| CC(C)=C1C2C=CC1[C@@H]1C(=O)N(c3ccc(F)cc3)C(=O)[C@H]21 | inactive |
| COc1ccc(N2C(=O)C3CCCCC3C2=O)c(OC)c1 (centres undefined) | inconclusive: 14% |
| Cc1ncc2c(c1CNC(=O)Cc1cccs1)CCN(C(=O)c1cccc(C(F)(F)F)c1)C2 | inconclusive: 10% |
| O=C(c1c(F)cccc1F)N1CCN=C1SCc1cccnc1 | inactive |
| O=C(CCSc1ccc2c(c1)OCCO2)N1CCCn2cncc2C1 | inconclusive: 12% |
| C/C(=C\c1ccc(N)cc1)c1nc2ccccc2[nH]1 | inconclusive: 17% |
| CCN1CCN(c2cc(C)c3cc(NC(=O)CCC(=O)NC4CCCC(C)C4C)ccc3n2)CC1 (centres undefined) | inactive |
| CCOc1ccc(Nc2c3ccccc3nc3ccccc23)cc1 | inconclusive: 28% |
| O=C(c1cc(CN2CCCC(O)C2)on1)N1CCc2ccccc2C1 (centres undefined) | inactive |
| O=c1c(Oc2ccc(F)cc2)coc2c(O)c(O)ccc12 | active: 41% |
| O=C(N[C@H]1CO[C@H]2[C@@H]1OC[C@@H]2Nc1nccc(-c2cccs2)n1)c1ccc2c(c1)OCO2 | inactive |
| CC(C)Nc1ccnc(N2CCC(n3cc(-c4ccsc4)nn3)CC2)n1 | inactive |
| CC(=O)N1CCc2c(nc(-c3ccccn3)nc2NCCn2cccn2)C1 | inconclusive: 10% |
| O=c1[nH]nc(Cc2ccccc2)c2ccccc12 | inactive |
| O=C(NC1CCCN(c2ncccn2)C1)c1csc(Cc2ccccc2)n1 (centres undefined) | inactive |
| N#C/C(=C\c1ccc(-c2cc([N+](=O)[O-])ccc2O)o1)c1nc2ccccc2[nH]1 | inconclusive: 12% |
| COCc1cc(C)nc2sc(C(=O)N(c3ccccc3)c3ccccc3)c(N)c12 | inconclusive: 12% |
| Cc1cc2c(cc1O)NC(=O)CC2c1cc(C(C)(C)C)n[nH]1 (centres undefined) | inconclusive: 10% |
